Data as given in patent US6649797B2, “Compounds and methods of use to treat infectious diseases” (The Picower Institute for Medical Research, priority 1996, dated 2003).
Some results were stated once for a whole list of compounds, not compound by compound.

Assay: Pharmacokinetics in mice (plasma, HPLC)
Assay type: in vivo, mouse
Details: oral, single 50 mg/kg dose

Row | Structure (SMILES) | time detectable in plasma
1 | CC(=O)c1cc(Nc2cc(C)[n+](C)c(N)n2)cc(C(C)=O)c1 [CNI-0294, 2-Amino-4-(3,5-diacetylphenyl)amino-1,6-dimethylpyrimidinium chloride] | at least 6 hr
2 | CC(=O)c1cc(Nc2cc(C)nc(N)n2)cc(C(C)=O)c1 [Compound No. 11, 2-amino-4-(3,5-diacetylphenyl)amino-6-methylpyrimidine] | at least 6 hr
